The values that follow come from paper PMC4718940, “Preclinical studies of 5-fluoro-2′-deoxycytidine and tetrahydrouridine in pediatric brain tumors” (Journal of Neuro-Oncology, 2015).

Assay [1] deals with mouse EP neurospheres. Kind of assay: 72 h dose response, CellTiter-Glo, mouse EP neurospheres. Format: cell-based. The following applies: 72 hr treatment, 384-well. As to the method: (§1) In the Discovery Phase, the initial studies included the screen of a library of 9 compounds against epigenetic regulators at a single concentration and a dose-response on G3 MB, EP, and CPC tumor cells, as well as HEPG2 and BJ (Fig. 1). The library and dose response studies are described in the Supplementary Material.
(§2) Briefly, cells (see Supplementary Table S2 for cell identity) were plated in 384-well plates (Corning) in 30 µL of supplemented neurobasal medium by using an automated plate filler (Wellmate, Matrix). After 24 hr, 28 nL of compound was transferred via pin tool, resulting in a final drug concentration of approximately 4 nM to 10 µM. After 72 hr of treatment, CellTiter-Glo reagent (Promega) was added, and the luminescence signal was measured using an automated Envision plate reader (Perkin-Elmer). Luminescence data were normalized by log10-transformation prior to calculating the percentage of inhibition using the following equation: 100 × (negative control mean − compound value)/(negative control mean − positive control mean). Our negative control represents cells treated with 0.1% DMSO with 0% inhibition. […] High through put assay data were analyzed by using our in-house Robust Interpretation of Screening Experiments (RISE) application that was written in Pipeline Pilot (Accelrys, v. 8.5) and R (R Development Core Team).
On the technique in general: Cellular ATP, detected with luciferase, serves as a proxy for viable cell number.

Assay [2] relates to mouse CPC neurospheres (CPC300). Kind of assay: 72 h dose response, CellTiter-Glo, mouse CPC neurospheres. Format: cell-based. The following applies: 72 hr treatment, 384-well. The procedure: as §1, §2

In general, EC50 refers to the concentration at which the effect is half-maximal. Read a low EC50 as an effect from little substance.

In the case of `O=C(CCCCCCC(=O)Nc1ccccc1)NO` [SAHA (Vorinostat), Vorinostat], the EC50 in assay [1] was found to be 6.3 µM; in assay [2], 6.7 µM.
